Test results reported in article PMC10943805.

Protein sequences, listed by entry. Tags and fused reporters are not part of them. Lines headed by an entry give the natural chain unless they say otherwise; changes in a name come on top.
UniProt Q2EJA0: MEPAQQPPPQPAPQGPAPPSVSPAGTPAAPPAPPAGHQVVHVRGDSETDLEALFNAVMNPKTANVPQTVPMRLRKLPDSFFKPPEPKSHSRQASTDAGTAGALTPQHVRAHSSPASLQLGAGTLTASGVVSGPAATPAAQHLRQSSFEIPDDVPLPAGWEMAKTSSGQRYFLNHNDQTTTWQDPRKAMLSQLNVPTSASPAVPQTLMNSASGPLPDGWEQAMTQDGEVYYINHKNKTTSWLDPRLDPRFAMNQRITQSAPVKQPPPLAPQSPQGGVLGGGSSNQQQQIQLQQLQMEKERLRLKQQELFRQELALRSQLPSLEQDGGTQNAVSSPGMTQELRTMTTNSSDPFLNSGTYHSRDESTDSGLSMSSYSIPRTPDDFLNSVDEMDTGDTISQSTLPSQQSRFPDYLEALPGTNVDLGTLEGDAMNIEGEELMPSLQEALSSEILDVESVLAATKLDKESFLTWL
UniProt D3ZYL0: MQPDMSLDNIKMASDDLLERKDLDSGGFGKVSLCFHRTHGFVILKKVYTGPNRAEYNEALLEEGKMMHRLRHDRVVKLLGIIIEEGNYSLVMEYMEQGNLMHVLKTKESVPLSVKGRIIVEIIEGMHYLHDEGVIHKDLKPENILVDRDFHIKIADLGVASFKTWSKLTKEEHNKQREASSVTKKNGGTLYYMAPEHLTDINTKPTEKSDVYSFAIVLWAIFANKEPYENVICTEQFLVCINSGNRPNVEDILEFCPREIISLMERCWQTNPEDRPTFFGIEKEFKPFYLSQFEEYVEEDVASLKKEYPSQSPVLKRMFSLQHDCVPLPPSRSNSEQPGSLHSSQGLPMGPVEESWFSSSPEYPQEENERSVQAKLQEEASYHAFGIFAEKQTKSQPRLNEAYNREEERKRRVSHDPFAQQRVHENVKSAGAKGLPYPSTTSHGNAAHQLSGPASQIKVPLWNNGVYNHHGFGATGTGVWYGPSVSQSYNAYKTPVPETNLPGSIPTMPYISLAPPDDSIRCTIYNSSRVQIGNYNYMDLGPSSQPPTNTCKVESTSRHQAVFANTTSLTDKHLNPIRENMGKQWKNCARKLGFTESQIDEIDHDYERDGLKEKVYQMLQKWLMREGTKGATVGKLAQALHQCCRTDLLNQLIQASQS

Biological target: Yes-associated protein (YAP) (rat (endogenous in primary rat chondrocytes)) (UniProt Q2EJA0)
Experiment: co-IP; lysate of primary rat chondrocytes (control or treated with IL-1β for 24 h; in Fig. 7I also after LIPUS) in IP lysis buffer with protease inhibitors; pre-cleared with Protein A+G magnetic beads; anti-YAP antibody overnight at 4 °C; western blot of the precipitate

For RIPK1 (from UniProt D3ZYL0), the binding was “binds”.

No constants are given. Whether binding was seen depends on the method and setting. In cells and extracts the contact can be indirect. Binding calls can cover weak binding; strength is not graded here.
